Experimental data taken from publication PMC4273604.
These are yes or no findings as the source states them, for the method shown. For some assays here: Binding seen in cells or lysates may run through a third protein. Some entries that bind do so weakly or less than the wild type. Where a sequence is shown, tags or fusion partners need not be part of it.

Chains of the proteins cited; added tags and fusions are not shown.
UniProt P77324: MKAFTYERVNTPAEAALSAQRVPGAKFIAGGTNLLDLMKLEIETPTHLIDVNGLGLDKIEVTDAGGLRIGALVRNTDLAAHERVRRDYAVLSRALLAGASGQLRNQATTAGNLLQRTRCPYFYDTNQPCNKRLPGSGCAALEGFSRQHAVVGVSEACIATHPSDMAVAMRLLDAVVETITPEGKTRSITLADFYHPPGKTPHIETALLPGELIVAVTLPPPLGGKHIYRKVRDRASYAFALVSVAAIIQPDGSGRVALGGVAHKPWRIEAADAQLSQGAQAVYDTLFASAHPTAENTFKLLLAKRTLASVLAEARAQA

Experiments:
[1] = target: T1, PaoA with a 6xHis-tag (hexahistidine-tagged version of PaoA, from plasmid pPaoAhBC) (E. coli) (UniProt P77165); experiment: native gel or EMSA; blue native PAGE (Novex NativePAGE) of the Ni2+-affinity eluate with the co-purified Pao proteins, desalted into 20 mM Tris/Cl pH 7.4
T1 sequence: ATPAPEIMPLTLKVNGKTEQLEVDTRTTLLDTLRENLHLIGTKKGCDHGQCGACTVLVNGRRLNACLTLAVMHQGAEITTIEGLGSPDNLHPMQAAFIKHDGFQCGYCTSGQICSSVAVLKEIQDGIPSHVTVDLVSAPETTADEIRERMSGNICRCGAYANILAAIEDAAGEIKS

[2] = target: T2, PaoA in the periplasmic fraction of ΔpaoAB-paoC::Kan cells expressing PaoABC (E. coli) (UniProt P77165); experiment: native gel or EMSA; blue native PAGE of the periplasmic fraction of ΔpaoAB-paoC::Kan cells expressing PaoABC
T2 sequence: T1 sequence

[3] = target: T1, PaoA with a 6xHis-tag (hexahistidine-tagged version of PaoA, from plasmid pPaoAhBC) (E. coli); experiment: pull-down; PaoA-6xHis co-produced with PaoB-FLAG and PaoC-HA in ΔpaoAB-paoC::Kan cells; soluble lysate on Ni-NTA spin columns, washed with 50 mM NaH2PO4, 300 mM NaCl, 20 mM imidazole pH 8.0, eluted with 500 mM imidazole; immunoblot of the eluate
[4] = target: T2, PaoA in the periplasmic fraction of ΔpaoAB-paoC::Kan cells expressing PaoABC (E. coli); experiment: SEC; gel filtration of the periplasmic fraction of ΔpaoAB-paoC::Kan cells expressing PaoABC

Measured: binding

PaoB-FLAG (from UniProt P77324 1-318)
binds: all assays above

B1: PaoC-HA (protein, UniProt P77489 1-732)
chain: MKFDKPAGENPIDQLKVVGRPHDRIDGPLKTTGTARYAYEWHEEAPNAAYGYIVGSAIAKGRLTALDTDAAQKAPGVLAVITASNAGALGKGDKNTARLLGGPTIEHYHQAIALVVAETFEQARAAASLVQAHYRRNKGAYSLADEKQAVNQPPEDTPDKNVGDFDGAFTSAAVKIDATYTTPDQSHMAMEPHASMAVWDGNKLTLWTSNQMIDWCRTDLAKTLKVPVENVRIISPYIGGGFGGKLFLRSDALLAALAARAVKRPVKVMLPRPSIPNNTTHRPATLQHLRIGADQSGKITAISHESWSGNLPGGTPETAVQQSELLYAGANRHTGLRLATLDLPEGNAMRAPGEAPGLMALEIAIDELAEKAGIDPVEFRILNDTQVDPADPTRCFSRRQLIECLRTGADKFGWKQRNATPGQVRDGEWLVGHGVAAGFRNNLLEKSGARVHLEQNGTVTVETDMTDIGTGSYTILAQTAAEMLGVPLEQVAVHLGDSSFPVSAGSGGQWGANTSTSGVYAACMKLREMIASAVGFDPEQSQFADGKITNGTRSATLHEATAGGRLTAEESIEFGTLSKEYQQSTFAGHFVEVGVHSATGEVRVRRMLAVCAAGRILNPKTARSQVIGAMTMGMGAALMEELAVDDRLGYFVNHDMAGYEVPVHADIPKQEVIFLDDTDPISSPMKAKGVGELGLCGVSAAIANAVYNATGIRVRDYPITLDKLLDKLPDVV
binds: all assays above
